# Reference: patent US20160214941A1, “Compounds for lnhibition of Unregulated Cell Growth” (GODAVARI BIOREFINERIES LIMITED, priority 2013, published 2016)
# How the values were obtained:
# Format in all cases: cell-based
# [1] = system: MDA MB 231; experiment: In vitro colorimetric cell death assay (MTT assay); settings: MDA MB 231 (breast cancer), 48 hours
# Protocol: MTT assay was carried for assessing cell viability where the cells were grown in two-dimensional surface. The procedure for the assay is as follows. Cancer cells were plated in 96 well plates as per predetermined plating efficiency. The plates were incubated for 24 hours in a 5% CO2 atmosphere at 37° C., a range of concentrations of the compound of the present invention was added to the wells, the plates were incubated further for 48 hours in a 5% CO2 atmosphere, the plates were centrifuged twice at 3000 rpm for 3 minutes, the supernatant fluid was discarded, 100 uL of 0.5 mg/mL MIT solution was added and the plates were incubated for 4 hours in a 5% CO2 atmosphere at 37° C. The plates were then centrifuged twice at 3000 rpm for 3 minutes, supernatant was aspirated very carefully, 200 uL DMSO was added to each well to solubilize MTT crystals and mixed well by shaking the plates, the plates were incubated for 10 minutes in a 5% CO2 atmosphere at 37° C., the plates were placed on the shaker of an ELISA plate reader and the absorbance at 570 nm was measured, then the percentage of viable cells remaining was calculated by first subtracting the background absorbance then comparing to the absorbance of a non-drug-treated cell sample, and the results were plotted on a graph to determine the IC50 for the compound as known in the art. The reference drug used was Cisplatin.
# [2] = system: HeLa; experiment: In vitro soft agar colony forming growth assay; settings: one week
# Protocol: (§1) Compounds of Formula IV were evaluated in an in vitro soft agar colony forming growth inhibition assay as described by Lieber, M M, and Kovach, J S. Soft agar colony formation assay for chemotherapeutic sensitivity of human solid tumors. Mayo Clin Proc 1982; 57: 527-528 and Tanigawa, N, Kern, D H, Kikasa, Y, and Morton, D L. Rapid assay for evaluating the chemosensitivity of human tumors in soft agar culture. Cancer Res 1982; 42: 2159-2164.
# (§2) An exemplary procedure for the in vitro soft agar colony forming growth inhibition assay is as follows.
# [3] = system: MCF 7; experiment: In vitro soft agar colony forming growth assay; settings: MCF 7, one week
# Protocol: as §1, §2
# [4] = system: MDA MB 231; experiment: In vitro soft agar colony forming growth assay; settings: MDA MB 231, one week
# Protocol: as §1, §2
compound,measurement,setting,value
N.N.[Cl][Pt][Cl] [Cisplatin],IC50,[1],75.2 µM
same,IC50,[2],3.5 µM
same,IC50,[3],38.9 µM
same,IC50,[4],38.9 µM
